Among the data in PMC5342796 are binding values, retold here.

The chains behind the UniProt entries cited, without tags or fusion partners. Where a name states a change or a piece, a line headed by the entry shows the natural chain unless it says otherwise. A line that says so, or that is headed by a name, gives the form on record, which may keep a tag or linker. Residues count along the entry.
UniProt Q9H6I2: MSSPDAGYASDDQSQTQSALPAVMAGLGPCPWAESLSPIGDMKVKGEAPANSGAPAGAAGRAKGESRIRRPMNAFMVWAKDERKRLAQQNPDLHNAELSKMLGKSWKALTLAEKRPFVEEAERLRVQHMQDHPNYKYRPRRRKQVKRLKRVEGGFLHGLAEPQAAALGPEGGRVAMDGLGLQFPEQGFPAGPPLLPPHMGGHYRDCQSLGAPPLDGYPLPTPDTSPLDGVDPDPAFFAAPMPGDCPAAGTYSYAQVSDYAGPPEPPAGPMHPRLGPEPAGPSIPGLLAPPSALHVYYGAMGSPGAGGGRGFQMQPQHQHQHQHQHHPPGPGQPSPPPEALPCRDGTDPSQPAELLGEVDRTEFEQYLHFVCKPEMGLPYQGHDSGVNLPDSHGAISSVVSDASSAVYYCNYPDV
SOX17 N-terminus (aa 1-132), tagged: residues 1-132 of Q9H6I2
SOX17 C-terminus (aa 201-414), tagged: residues 201-414 of Q9H6I2
UniProt Q96JK9: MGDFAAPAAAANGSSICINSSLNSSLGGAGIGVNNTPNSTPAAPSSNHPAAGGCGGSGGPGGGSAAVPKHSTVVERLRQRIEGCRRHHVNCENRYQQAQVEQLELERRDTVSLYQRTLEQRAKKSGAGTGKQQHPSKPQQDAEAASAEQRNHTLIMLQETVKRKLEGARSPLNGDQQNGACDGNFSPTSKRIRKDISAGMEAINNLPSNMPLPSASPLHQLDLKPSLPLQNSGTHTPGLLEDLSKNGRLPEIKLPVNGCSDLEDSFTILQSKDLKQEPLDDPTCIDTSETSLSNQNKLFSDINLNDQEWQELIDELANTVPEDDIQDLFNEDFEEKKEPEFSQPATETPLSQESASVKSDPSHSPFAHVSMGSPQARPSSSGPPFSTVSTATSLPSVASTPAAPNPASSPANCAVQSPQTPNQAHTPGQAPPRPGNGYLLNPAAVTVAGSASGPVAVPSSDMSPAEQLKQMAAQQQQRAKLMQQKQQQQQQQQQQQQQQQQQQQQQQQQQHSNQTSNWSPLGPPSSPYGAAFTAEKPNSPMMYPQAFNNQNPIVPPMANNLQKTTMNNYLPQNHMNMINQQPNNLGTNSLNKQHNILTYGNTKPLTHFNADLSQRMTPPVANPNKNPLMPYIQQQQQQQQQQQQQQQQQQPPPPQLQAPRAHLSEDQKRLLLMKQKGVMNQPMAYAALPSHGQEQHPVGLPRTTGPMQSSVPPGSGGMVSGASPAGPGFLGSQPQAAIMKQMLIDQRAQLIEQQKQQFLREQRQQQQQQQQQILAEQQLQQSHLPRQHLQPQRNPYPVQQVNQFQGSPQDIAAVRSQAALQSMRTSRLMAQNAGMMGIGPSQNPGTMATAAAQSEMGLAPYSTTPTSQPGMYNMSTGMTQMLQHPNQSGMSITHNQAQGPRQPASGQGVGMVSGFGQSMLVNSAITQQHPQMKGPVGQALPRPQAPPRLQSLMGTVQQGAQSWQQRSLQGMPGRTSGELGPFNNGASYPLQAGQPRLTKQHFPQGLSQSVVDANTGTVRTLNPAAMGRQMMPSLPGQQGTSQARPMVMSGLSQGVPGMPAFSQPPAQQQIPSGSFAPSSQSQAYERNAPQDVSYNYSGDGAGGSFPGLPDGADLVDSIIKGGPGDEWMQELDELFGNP

Results are given in words; binding and its absence hold for the method and conditions named. Binding seen in cells or lysates may run through a third protein. A result given as binding can be weak or reduced; the word gives no strength.

Holding throughout (test): co-IP; HEK293 cells cotransfected with HA- or c-Myc-tagged full-length or fragment SOX17 and MAML3 vectors; blots with HA and c-Myc antibodies
The target of test [1] is SOX17 C-terminus (aa 201-414), tagged (UniProt Q9H6I2).
Test [2] addresses SOX17 N-terminus (aa 1-132), tagged (UniProt Q9H6I2).
Test [3] has as its target SOX17 full-length protein, tagged (UniProt Q9H6I2).

On to “MAML3 C-terminus (aa 844-1134), tagged (from UniProt Q96JK9) (domain or fragment)”, for which the binding result in test [1], in test [2] and in test [3] was “no binding” each time.
As for “MAML3 N-terminus (aa 1-506), tagged (from UniProt Q96JK9) (domain or fragment)”, the binding entry in test [1], in test [2] and in test [3] was “binds” each time.
